# Where “and” joins values, the source holds several entries; their conditions need not be identical. Equal entries are not always repeated. Inconclusive results, whose numbers are uncertain, are shown with a selection of clear calls. For some assays here: A potency beside an inconclusive call is a rough fit, not a confirmed value. Some compounds were tested as several samples or in several runs, with calls that do not always agree. Calls of active or inactive are those of the source. Unless noted, the call rests on the fitted dose curve.
# Sequences of proteins named here, by UniProt entry; tags and fusion partners are left off. A change or cut given only in a name is not applied to a line headed by its entry.
# UniProt P19793: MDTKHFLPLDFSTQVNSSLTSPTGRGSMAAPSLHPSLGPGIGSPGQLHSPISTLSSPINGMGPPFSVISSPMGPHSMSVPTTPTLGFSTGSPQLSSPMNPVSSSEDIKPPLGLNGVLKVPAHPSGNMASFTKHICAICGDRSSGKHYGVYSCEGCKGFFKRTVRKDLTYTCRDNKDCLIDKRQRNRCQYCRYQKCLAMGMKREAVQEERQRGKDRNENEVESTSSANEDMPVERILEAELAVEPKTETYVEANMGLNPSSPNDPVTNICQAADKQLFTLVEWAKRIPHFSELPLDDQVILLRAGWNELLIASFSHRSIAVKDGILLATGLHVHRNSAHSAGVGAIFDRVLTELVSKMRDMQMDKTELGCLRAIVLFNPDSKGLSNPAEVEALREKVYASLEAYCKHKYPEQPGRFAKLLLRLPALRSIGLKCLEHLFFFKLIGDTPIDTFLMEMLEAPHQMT
# UniProt P08659, whole entry, looked up: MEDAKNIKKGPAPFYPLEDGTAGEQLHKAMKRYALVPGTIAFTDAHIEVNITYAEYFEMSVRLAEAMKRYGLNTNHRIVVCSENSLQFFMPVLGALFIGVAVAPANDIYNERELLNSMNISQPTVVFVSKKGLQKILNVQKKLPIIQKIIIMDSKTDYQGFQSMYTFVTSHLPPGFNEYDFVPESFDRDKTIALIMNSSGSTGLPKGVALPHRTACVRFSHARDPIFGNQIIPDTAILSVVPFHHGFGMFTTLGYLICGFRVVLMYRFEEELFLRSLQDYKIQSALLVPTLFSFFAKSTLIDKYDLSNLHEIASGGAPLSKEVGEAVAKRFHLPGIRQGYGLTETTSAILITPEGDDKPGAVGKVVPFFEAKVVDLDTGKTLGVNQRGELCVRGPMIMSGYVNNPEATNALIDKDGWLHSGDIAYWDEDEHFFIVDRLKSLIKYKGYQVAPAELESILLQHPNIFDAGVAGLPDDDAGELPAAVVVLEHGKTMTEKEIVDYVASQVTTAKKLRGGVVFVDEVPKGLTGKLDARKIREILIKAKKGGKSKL
# Columns and labels:
# [1] = biological target: Retinoic acid receptor RXR-alpha (Homo sapiens) (UniProt P19793); assay: qHTS assay to identify small molecule agonists of the RXR signaling pathway (AID 1159527); conditions: HEK293T RXRa-UAS-bla, beta-lactamase ratio, 16 h; further: nearly all actives have a fitted effect of over 35% in size; further: potency means the concentration at half of the fitted maximal effect; on activation: on the % scale 0 is the no-effect control and ±100 the full control effect
# Summary of the method: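 16 hr incubation of compound-treated RXR-alpha-UAS-bla HEK 293T cells (2% charcoal-stripped FBS, 37 C) preceded a 2 hr room-temperature LiveBLAzer FRET substrate step and blue/green fluorescence measurement.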
# [2] = qHTS assay to identify small molecule agonists of the RXR signaling pathway - cell viability counter screen (AID 1159529; active means well fitted curve in the direction sought with a large enough effect in the repeat runs; inconclusive means weak or mixed curves; inactive means no such curve, though single readings can be large; an effect the other way counts as inactive or inconclusive; further: nearly all actives have a fitted effect of over 50% in size; further: potency means the concentration at half of the fitted maximal effect;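 on activity change, negative = cytotoxicity: HEK 293T cells carrying an RXR-alpha UAS beta-lactamase reporter; on the % scale 0 is the no-effect control and ±100 the full control effect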)
# Summary of the method: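 In this parallel viability measure, GeneBLAzer RXR-alpha HEK 293T cells (2% charcoal-stripped FBS) were given a 5 hr preincubation, treated with compounds 16 hr at 37 C, and read by CellTiter-Glo luminescence.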
# [3] = qHTS assay to identify small molecule agonists of the retinoic acid receptor (RAR) signaling pathway (AID 1159553; active means well fitted curve in the direction sought with a large enough effect in the repeat runs; inconclusive means weak or mixed curves; inactive means no such curve, though single readings can be large; an effect the other way counts as inactive or inconclusive; further: potency means the concentration at half of the fitted maximal effect; on activation: on the % scale 0 is the no-effect control and ±100 the full control effect); conditions: C3RL4 RARE luciferase reporter, agonist, 6 h; activation: at 73.3 µM (top of the series) unless noted
# Summary of the method: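 Activation of retinol signaling was monitored via a RARE luciferase reporter in C3RL4 cells. After 6 hr compound treatment at 37 C, detection reagent was added for 30 min at room temperature before luminescence reading.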
# [4] = qHTS assay to identify small molecule agonists of the AP-1 signaling pathway (AID 1159526); conditions: ME-180 (cervical carcinoma) AP-1-bla reporter, beta-lactamase FRET ratio, 5 h; activation: at 76.8 µM (top of the series) unless noted; further: on the % scale 0 is the no-effect control and ±100 the full control effect
# [5] = biological target: Luciferin 4-monooxygenase (Photinus pyralis) (UniProt P08659); assay: qHTS assay to identify small molecule inhibitors of firefly luciferase (AID 1224835; active means well fitted curve in the direction sought with a large enough effect in the repeat runs; inconclusive means weak or mixed curves; inactive means no such curve, though single readings can be large; an effect the other way counts as inactive or inconclusive; further: nearly all actives have a fitted effect of over 25% in size; further: potency means the concentration at half of the fitted maximal effect)
# Summary of the method: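 Biochemical qHTS: compounds run as interplate titrations against purified firefly enzyme, with D-luciferin and ATP each at its KM concentration. Light output recorded by CCD imaging.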
# [6] = qHTS assay to identify small molecule antagonists of the retinoic acid receptor (RAR) signaling pathway (AID 1159552; active means well fitted curve in the direction sought with a large enough effect in the repeat runs; inconclusive means weak or mixed curves; inactive means no such curve, though single readings can be large; an effect the other way counts as inactive or inconclusive; further: nearly all actives have a fitted effect of over 50% in size; further: potency means the concentration at half of the fitted maximal effect)
# Summary of the method: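 C3RL4 RARE-luc cells, overnight plating; retinol 1 uM final added right after compound; 6 hr 37 C; luciferase read at 30 min RT.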
# [7] = qHTS assay to identify small molecule antagonists of the estrogen related receptor (ERR) signaling pathway from Tox21 library - cell viability counter screen (AID 1224834; active means well fitted curve in the direction sought with a large enough effect in the repeat runs; inconclusive means weak or mixed curves; inactive means no such curve, though single readings can be large; an effect the other way counts as inactive or inconclusive; further: potency means the concentration at half of the fitted maximal effect; nearly all actives have a fitted effect of over 30% in size)
# Summary of the method: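 CellTiter-Fluor fluorescence measured; ERR cells; 17.5 h compound incubation at 37 C; 30 min reagent step.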
# [8] = qHTS assay to identify small molecule antagonists of the retinoid acid receptor (RAR) signaling pathway - cell viability counter screen (AID 1159551; active means well fitted curve in the direction sought with a large enough effect in the repeat runs; inconclusive means weak or mixed curves; inactive means no such curve, though single readings can be large; an effect the other way counts as inactive or inconclusive; further: nearly all actives have a fitted effect of over 35% in size; further: potency means the concentration at half of the fitted maximal effect)
# Summary of the method: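 Seed C3RL4 cells; next day add compound, then retinol to 1 uM final; incubate 6 h at 37 C; add CellTiter-Glo; read luminescence after 30 min at RT.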
# [9] = qHTS assay to identify small molecule agonists of the estrogen related receptor (ERR) signaling pathway (AID 1224820; active means well fitted curve in the direction sought with a large enough effect in the repeat runs; inconclusive means weak or mixed curves; inactive means no such curve, though single readings can be large; an effect the other way counts as inactive or inconclusive; further: potency means the concentration at half of the fitted maximal effect)
# Summary of the method: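 ERR reporter cells (NTP line) plated 2,000/well, incubated 6 h at 37 C/5% CO2, then pinned with compounds in DMSO and held 18 h at 37 C. One-Glo added; luminescence read after 30 min at room temperature.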
# [10] = qHTS assay to identify small molecule agonists of the estrogen related receptor signaling pathway with the pleiotropic PPARgamma coactivator (PGC) (AID 1224823; active means well fitted curve in the direction sought with a large enough effect in the repeat runs; inconclusive means weak or mixed curves; inactive means no such curve, though single readings can be large; an effect the other way counts as inactive or inconclusive; further: potency means the concentration at half of the fitted maximal effect)
# Summary of the method: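 PGC/ERR reporter cells were seeded, rested 6 h at 37 C/5% CO2, then exposed to compounds in DMSO by pin transfer for 18 h at 37 C. Luciferase activity was read as luminescence after One-Glo reagent and 30 min at room temperature.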
# [11] = qHTS assay to identify small molecule agonists of the constitutive androstane receptor (CAR) signaling pathway - cell viability counter screen (AID 1224836; active means well fitted curve in the direction sought with a large enough effect in the repeat runs; inconclusive means weak or mixed curves; inactive means no such curve, though single readings can be large; an effect the other way counts as inactive or inconclusive; further: potency means the concentration at half of the fitted maximal effect; nearly all actives have a fitted effect of over 45% in size)
# Summary of the method: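 Using CellTiter-Fluor, viability of HepG2 cells harbouring hCAR and CYP2B6-2.2kb was measured following 23 h incubation with a 15-concentration compound series plus PK11195 (0.75 uM final).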
# [12] = qHTS assay to identify small molecule antagonists of the constitutive androstane receptor (CAR) signaling pathway - cell viability counter screen (AID 1224837; active means well fitted curve in the direction sought with a large enough effect in the repeat runs; inconclusive means weak or mixed curves; inactive means no such curve, though single readings can be large; an effect the other way counts as inactive or inconclusive; further: potency means the concentration at half of the fitted maximal effect; nearly all actives have a fitted effect of over 45% in size)
# Summary of the method: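 Using CellTiter-Fluor, viability is scored in HepG2 cells stably carrying hCAR and a 2.2kb CYP2B6 reporter after 23 hr compound exposure across 15 concentrations, with CITCO present at 50 nM.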
# [13] = activation: at 76.8 µM (top of the series) unless noted
smiles,measurement,setting,value
CCOC(=O)COc1cc(-c2nn(C)c(OC(F)F)c2Cl)c(F)cc1Cl,activation,[1]; [13],inconclusive: 19.3%
Cl[C@H]1OCCO[C@@H]1Cl,activation,[1]; [13],inconclusive: 7.86%
CN(C)CCc1c[nH]c2ccc(O)cc12,Potency,[1]; [13],"inconclusive: 47.8 µM [rising, single point]"
same,Potency,[2],"inconclusive: 24 µM [cytotoxic, partial curve, poor fit]"
same,Potency,[3],"inconclusive: 23.8 µM [inhibitor, full curve]"
NC(=O)O,Potency,[1]; [13],"inconclusive: 30.9 µM [activator, partial curve, poor fit]"
N#Cc1cccc(C#N)c1,activation,[1]; [13],inconclusive: 2.25%
same,activation,[1]; at 76.8 µM (top of the series),inactive: 0.165%
c1ccc2c(c1)-c1cccc3cccc-2c13,Potency,[1]; [13],"inconclusive: 49.4 µM [activator, partial curve, poor fit]"
same,Potency,[2],"inconclusive: 44.1 µM [cytotoxic, partial curve, poor fit] and inconclusive: 34.7 µM [cytotoxic, partial curve]"
CCCC[n+]1cccc(C)c1,Potency,[1]; [13],inactive
O=C([O-])c1ccccn1.O=C([O-])c1ccccn1.O=C([O-])c1ccccn1.[Cr+3],Potency,[4],inactive
same,Potency,[5],inactive
c1ccc(P(c2ccccc2)c2ccccc2)cc1,Potency,[1]; [13],inactive
OCCN(CCO)CCO,Potency,[1]; [13],"inconclusive: 55 µM [activator, single point]"
CCOP(=S)(OCC)SCSCC,activation,[1]; [13],inconclusive: -27.5%
NC1CCC(CC2CCC(N)CC2)CC1 (stereo unspecified),Potency,[1]; [13],"inconclusive: 60.6 µM [rising, partial curve, poor fit]"
same,Potency,[2],"inconclusive: 7.63 µM [cytotoxic, partial curve]"
same,Potency,[6],"inconclusive: 42.5 µM [inhibitor, partial curve]"
same,activation,[3],inconclusive: -6.05% [phenotype inactive]
same,Potency,[7],"inconclusive: 53.5 µM [cytotoxic, partial curve]"
CC1(C)CC(=O)CC(C)(C)N1[O],Potency,[1]; [13],inactive
CC(=O)/C=C/c1ccccc1,Potency,[1]; [13],"inconclusive: 61.6 µM [fluorescent, partial curve, poor fit]"
same,Potency,[8],inconclusive: 47.7 µM
Cc1cccc(N)c1N,Potency,[1]; [13],inconclusive: 49 µM
same,activation,[1]; [13],inconclusive: -20.8%
same,Potency,[3],active: 1.05 µM and active: 2.43 µM
same,Potency,[7],"inconclusive: 27.3 µM [cytotoxic, partial curve]"
same,Potency,[5],"inconclusive: 0.633 µM [inhibitor, full curve]"
COC(=O)c1sccc1S(=O)(=O)NC(=O)Nc1nc(C)nc(OC)n1,Potency,[1]; [13],inactive
O=C(O)c1cc(I)cc(I)c1I,activation,[1]; [13],inconclusive: 10.7%
FC(F)(F)c1ccc(Cl)cc1,Potency,[1]; [13],inactive
CNC(=O)CSP(=O)(OC)OC,Potency,[1]; [13],"inconclusive: 61.6 µM [activator, single point]"
COP(=S)(NC(C)C)Oc1ccc(C)cc1[N+](=O)[O-] (stereo unspecified),Potency,[1]; [13],"inconclusive: 21.9 µM [activator, partial curve]"
Brc1cccc(-c2ccccc2)c1,activation,[1]; [13],inconclusive: -24.6%
same,Potency,[2],inactive
same,Potency,[5],"inconclusive: 80.2 µM [inhibitor, partial curve, poor fit]"
C=Cc1cccc(CCl)c1,Potency,[1]; [13],"inconclusive: 35.6 µM [inhibitor, partial curve, poor fit]"
same,Potency,[8],inactive
Cc1cc(Cl)ccc1OCCCC(=O)O,Potency,[1]; [13],"inconclusive: 28.6 µM [activator, partial curve]"
same,activation,[1]; [13],inconclusive: 10.9%
same,Potency,[3],inactive
same,Potency,[5],"inconclusive: 99.4 µM [inhibitor, partial curve, poor fit]"
c1ccc(OCC2CO2)cc1 (stereo unspecified),activation,[1]; [13],inconclusive: 21%
same,Potency,[6],inactive
same,Potency,[3],"inconclusive: 30.7 µM [inhibitor, full curve]"
O=S(=O)(Oc1ccc(Cl)cc1)c1ccc(Cl)cc1,Potency,[1]; [13],"inconclusive: 7.01 µM [inhibitor, partial curve, poor fit]"
same,activation,[1]; [13],inconclusive: -21.5%
same,activation,[3],inconclusive: 6.06% [phenotype inactive] [at 94.8 µM]
CCOC(=O)c1ccccc1C(=O)OCC,Potency,[1]; [13],"inconclusive: 35.3 µM [activator, partial curve, poor fit] and inconclusive: 61.6 µM [activator, partial curve, poor fit]"
same,Potency,[2],inactive
same,Potency,[8],"inconclusive: 62.2 µM [rising, partial curve, poor fit]"
Clc1cc2c(cc1Cl)Oc1cc(Cl)c(Cl)cc1O2,activation,[1]; [13],inactive: 5.21% [at 0.29 µM]
same,"activity change, negative = cytotoxicity",[2],inactive: -1.01% [at 0.29 µM]
same,activation,[3],inactive: -1.63% [at 0.338 µM]
CCCSP(=O)(OCC)Oc1ccc(Br)cc1Cl (stereo unspecified),Potency,[1]; [13],"inconclusive: 10.6 µM [inhibitor, partial curve]"
O=C(O)C(F)(F)C(F)(F)C(F)(F)C(F)(F)C(F)(F)C(F)(F)C(F)(F)F,Potency,[1]; [13],"inconclusive: 21.8 µM [activator, partial curve]"
O=[N+]([O-])c1c(Cl)c(Cl)c(Cl)c(Cl)c1Cl,Potency,[1]; [13],active: 6.89 µM
same,Potency,[2],inactive
COC(=O)c1ccccc1N,Potency,[1]; [13],"inconclusive: 27.5 µM [activator, partial curve, poor fit]"
same,activation,[1]; [13],inconclusive: 25%
CCCCC(CC)COC(=O)Cl (stereo unspecified),Potency,[5],"inconclusive: 89.6 µM [inhibitor, single point]"
CCCCC(CC)COC(=O)c1c(Br)c(Br)c(Br)c(Br)c1C(=O)OCC(CC)CCCC (stereo unspecified),Potency,[6],"inconclusive: 6.69 µM [inhibitor, partial curve, poor fit]"
Nc1ccc(Cl)cc1N,Potency,[8],"inconclusive: 43.3 µM [rising, partial curve, poor fit]"
same,Potency,[3],active: 1.6 µM and active: 545 nM
same,Potency,[9],active: 5.88 µM
same,Potency,[10],inconclusive: 10.5 µM [activator]
same,Potency,[7],"inconclusive: 86.3 µM [cytotoxic, partial curve, poor fit]"
same,Potency,[5],active: 13.1 µM and active: 7.1 µM
same,Potency,[11],"inconclusive: 14.2 µM [cytotoxic, full curve] and active: 4.33 µM"
same,Potency,[12],"inconclusive: 8.98 µM [cytotoxic, full curve] and active: 6.86 µM"

# Three entries drawn at random from the list so far, as already listed:
smiles,measurement,setting,value
c1ccc(OCC2CO2)cc1 (stereo unspecified),activation,[1]; [13],inconclusive: 21%
CCOC(=O)COc1cc(-c2nn(C)c(OC(F)F)c2Cl)c(F)cc1Cl,activation,[1]; [13],inconclusive: 19.3%
CCCSP(=O)(OCC)Oc1ccc(Br)cc1Cl (stereo unspecified),Potency,[1]; [13],"inconclusive: 10.6 µM [inhibitor, partial curve]"

# Source: PubChem BioAssay (Tox21)
